Test results reported in patent US20250326865A1, “C-MET PROTEIN-BINDING PEPTIDE COMPLEX” (PeptiDream Inc., priority 2021, published 2025).
Not every detail of the peptide structures is certain; ends, links or a residue may be inferred. Starred links: 1 amine or outer side, 2 acyl side, 3 side chain; linkers in the order of their positions; H or OH if unused. Positions of bridges follow the written chain, without caps; N, C: chain ends. Non-standard residues stand in square brackets, D forms with d. Residues, ends and D or L forms follow the SMILES beside them. Chains are numbered I, II in the order given. CO(CH2)2(OCH2CH2)17CO = O=C(CCOCCOCCOCCOCCOCCOCCOCCOCCOCCOCCOCCOCCOCCOCCOCCOCCOCCC(=O)[*:2])[*:1]; NMeF = CN[C@@H](Cc1ccccc1)C(=O)O; Ahp(2) = CCCCC[C@H](N)C(=O)O; NMeC = CN[C@@H](CS)C(=O)O

Protein sequences, listed by entry. Tags and fused reporters are not part of them. Residues count along the entry.
UniProt P08581, 25-1390: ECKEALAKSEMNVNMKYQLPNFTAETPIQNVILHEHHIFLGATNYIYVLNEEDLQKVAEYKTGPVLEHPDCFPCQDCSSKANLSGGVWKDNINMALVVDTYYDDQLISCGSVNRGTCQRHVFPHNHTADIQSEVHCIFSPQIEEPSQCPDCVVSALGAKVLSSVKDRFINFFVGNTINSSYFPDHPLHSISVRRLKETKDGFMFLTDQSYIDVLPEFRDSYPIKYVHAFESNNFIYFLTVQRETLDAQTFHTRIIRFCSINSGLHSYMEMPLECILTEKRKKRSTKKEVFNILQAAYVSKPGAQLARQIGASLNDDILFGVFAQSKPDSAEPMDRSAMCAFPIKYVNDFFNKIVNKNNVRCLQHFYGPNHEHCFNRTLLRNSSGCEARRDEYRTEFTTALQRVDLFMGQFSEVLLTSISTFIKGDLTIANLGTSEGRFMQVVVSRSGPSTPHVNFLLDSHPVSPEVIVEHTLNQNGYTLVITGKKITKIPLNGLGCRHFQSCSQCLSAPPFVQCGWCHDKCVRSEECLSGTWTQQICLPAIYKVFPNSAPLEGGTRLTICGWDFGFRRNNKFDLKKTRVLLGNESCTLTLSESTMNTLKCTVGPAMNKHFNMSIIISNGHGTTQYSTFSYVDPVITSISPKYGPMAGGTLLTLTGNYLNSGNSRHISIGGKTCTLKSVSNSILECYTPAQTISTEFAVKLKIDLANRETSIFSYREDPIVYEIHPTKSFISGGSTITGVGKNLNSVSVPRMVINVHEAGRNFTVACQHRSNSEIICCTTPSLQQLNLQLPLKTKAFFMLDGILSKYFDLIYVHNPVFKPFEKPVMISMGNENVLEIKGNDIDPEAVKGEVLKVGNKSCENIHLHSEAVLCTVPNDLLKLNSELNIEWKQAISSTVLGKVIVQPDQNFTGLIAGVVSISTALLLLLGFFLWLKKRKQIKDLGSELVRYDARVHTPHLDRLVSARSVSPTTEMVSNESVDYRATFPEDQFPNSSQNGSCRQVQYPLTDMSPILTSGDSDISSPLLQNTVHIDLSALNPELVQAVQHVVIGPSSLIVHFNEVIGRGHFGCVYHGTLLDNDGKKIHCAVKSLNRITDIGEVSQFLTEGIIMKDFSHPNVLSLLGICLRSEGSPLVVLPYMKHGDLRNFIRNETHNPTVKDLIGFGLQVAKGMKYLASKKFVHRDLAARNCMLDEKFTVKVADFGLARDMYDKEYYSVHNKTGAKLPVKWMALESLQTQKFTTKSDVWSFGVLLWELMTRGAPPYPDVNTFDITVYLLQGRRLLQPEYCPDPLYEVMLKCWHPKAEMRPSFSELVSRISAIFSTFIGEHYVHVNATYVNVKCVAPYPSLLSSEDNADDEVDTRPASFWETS

Target: T1, c-Met (Homo sapiens, UniProt P08581)
T1 construct: endogenous in cells; host or cells: A431 (human)
Test: Phospho-c-Met AlphaLISA assay (c-Met agonist activity) in A431 cells
Format: cell-based
Settings: concentration of peptide showing 50% activity of the signal induced by HGF, 15 minutes of stimulation, read-out: C-Met Agonist Activity (C50; nM)
Protocol: To evaluate the activation potency (c-Met agonist activity) of c-Met of the peptide complex of the present invention, the phosphorylation of c-Met was verified. Human A431 cells were cultured in DMEM high glucose, GlutaMAX (registered trademark) Supplement, pyruvate (Thermo Fisher Scientific), containing 10% FBS (Gibco). After cells were detached using Accutase (Innovative cell technologies), they were seeded into a 96-well plate at 10000 cells per well and cultured overnight. The next day, for starvation, the culture medium was changed to DMEM high glucose, GlutaMAX (registered trademark) Supplement, pyruvate (Thermo Fisher Scientific), containing 0.1% BSA (Sigma-Aldrich), and the cells were cultured overnight. […] The assay was performed according to the kit protocol, and a SpectraMax (registered trademark) Paradigm (registered trademark) multimode microplate reader (Molecular Devices, LLC.) was used for signal detection. […] In the same manner, the C50 value was calculated by GraphPad Prism as the concentration of peptide showing 50% activity of the signal induced by HGF. […]

Q: For `CCCCC[C@@H]1NC(=O)[C@H](CC(=O)O)NC(=O)[C@H](CO)NC(=O)[C@H](CC(=O)O)NC(=O)[C@H](Cc2ccccc2)N(C)C(=O)[C@H](CO)NC(=O)[C@H](C(C)C)NC(=O)[C@H](C)NC(=O)[C@H](CCC(=O)O)NC(=O)[C@H](Cc2ccccc2)N(C)C(=O)CSC[C@@H](C(=O)NCC(=O)N[C@@H](CCCCNC(=O)CCOCCOCCOCCOCCOCCOCCOCCOCCOCCOCCOCCOCCOCCOCCOCCOCCOCCC(=O)NCCCC[C@H](NC(=O)CNC(=O)[C@@H]2CSCC(=O)N(C)[C@@H](Cc3ccccc3)C(=O)N[C@@H](CCC(=O)O)C(=O)N[C@@H](C)C(=O)N[C@@H](C(C)C)C(=O)N[C@@H](CO)C(=O)N(C)[C@@H](Cc3ccccc3)C(=O)N[C@@H](CC(=O)O)C(=O)N[C@@H](CO)C(=O)N[C@@H](CC(=O)O)C(=O)N[C@@H](CCCCC)C(=O)N3CCC[C@H]3C(=O)N[C@@H](CCCNC(=N)N)C(=O)N[C@@H](Cc3c[nH]c4ccccc34)C(=O)N[C@@H](C)C(=O)N2C)C(N)=O)C(N)=O)N(C)C(=O)[C@H](C)NC(=O)[C@H](Cc2c[nH]c3ccccc23)NC(=O)[C@H](CCCNC(=N)N)NC(=O)[C@@H]2CCCN2C1=O` [Peptide 25] (I: {CH2CO}-[NMeF]EAVS[NMeF]DSD[Ahp(2)]PRWA[NMeC]GK-NH2 / II: {CH2CO}-[NMeF]EAVS[NMeF]DSD[Ahp(2)]PRWA[NMeC]GK-NH2; linker I:17-II:17 via CO(CH2)2(OCH2CH2)17CO (inferred); thioether I:N-I:15, II:N-II:15 (inferred); C-terminus assumed), which EC50 is on record?
A: 0.81 nM
